Laboratory results published in PubChem BioAssay AID504847 (National Center for Advancing Translational Sciences (NCATS), 2011).
About 3,700 (0.93%) of roughly 400,000 compounds were called active. This list was built around the results that the source calls inconclusive (neither active nor inactive); the mix of calls is not that of the screen. Calls follow the shape of the dose curve; as a rule, active = well fitted inhibition curve with a large enough effect; inconclusive = small, poorly fitted or top-dose-only effect, or another doubt; inactive = no such curve, though single readings can be large or run the other way. Potencies of inconclusive entries are doubtful fits and often do not repeat. Some structures have more than one record in an assay (separate samples or runs), and their calls can disagree.

Sequences of proteins named here, by UniProt entry; tags and fusion partners are left off. A change or cut given only in a name is not applied to a line headed by its entry.
UniProt P11473: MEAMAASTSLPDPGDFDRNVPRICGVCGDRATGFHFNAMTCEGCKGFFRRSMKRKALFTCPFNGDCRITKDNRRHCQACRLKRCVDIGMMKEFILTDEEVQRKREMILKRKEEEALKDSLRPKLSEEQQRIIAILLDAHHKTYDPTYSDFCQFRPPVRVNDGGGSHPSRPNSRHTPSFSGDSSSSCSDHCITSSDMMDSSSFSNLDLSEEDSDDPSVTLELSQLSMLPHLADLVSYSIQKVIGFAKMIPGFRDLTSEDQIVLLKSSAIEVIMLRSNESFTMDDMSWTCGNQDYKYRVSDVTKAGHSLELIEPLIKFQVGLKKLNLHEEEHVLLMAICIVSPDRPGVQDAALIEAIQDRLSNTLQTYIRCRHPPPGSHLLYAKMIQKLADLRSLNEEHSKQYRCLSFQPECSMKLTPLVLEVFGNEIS

biological target: Vitamin D3 receptor (Homo sapiens) (UniProt P11473); experiment: Inhibitors of the vitamin D receptor (VDR): qHTS; conditions: VDR-SRC2-3 peptide fluorescence polarization, 2 h; max response, negative = inhibition: hits give low values
How it was run: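 Reagent solutions, kept cold and dark, are dispensed first; compounds are then pinned in at 23 nl, plates briefly spun, and incubated 2 h at ambient temperature. Inhibition of VDR–SRC2-3 peptide binding is read by fluorescence polarization.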
% is scaled to controls: 0 for no effect and ±100 for the full control effect; potency is read from the fitted curve at half-maximal effect.

| SMILES | Potency | max response, negative = inhibition |
| --- | --- | --- |
| c1ccc2sc(SNC3CCCCC3)nc2c1 | inconclusive: 10 µM [inhibitor, full curve, poor fit] | – |
| CCCOc1ccc(C(C)=O)cc1Cc1c(O)[nH]c(=S)[nH]c1=O | inconclusive: 89.1 µM [inhibitor, single point] | – |
| COC(=O)C1=C(c2cc3ccccc3o2)C[C@@H]2CC[C@H]1N2C(=O)NC(C)C | – | inactive: -12.6% |
| O=C1C(Cl)=C(Cl)C(=O)C(Cl)=C1Cl | active: 0.708 µM | – |
| c1csc(CN2CC[C@@]3(CCCNC3)C2)n1 | inconclusive: 89.1 µM [inhibitor, single point] | – |
| CC1(C)CC(=O)C(C2(O)C(=O)NC(=O)NC2=O)=C(O)C1 | active: 44.7 µM | – |
| CCCSP(=S)(OCC)Oc1ccc(Cl)cc1Cl (stereo not drawn) | active: 7.08 µM | – |
| CCOc1cncc(/C=C/CCNC)c1 | inconclusive: 100 µM [inhibitor, partial curve, poor fit] | – |
| CCOP1(=S)Oc2cc3c(cc2C(C(=O)OC)(C(F)(F)F)O1)OCO3 (stereo not drawn) | active: 79.4 µM | – |
| COc1ccc(/C=C2\C(=O)NC(=O)N(CCC3=CCCCC3)C2=O)c(OC)c1 | inconclusive: 79.4 µM [inhibitor, partial curve] | – |
| C[C@]12CC[C@@H]3C(=CCc4cc(O)ccc43)[C@@H]1CCC2=O | inconclusive: 25.1 µM [inhibitor, partial curve] | – |
| O=C1NC(=O)N(Cc2ccccc2)C(=O)/C1=C\C=C\c1ccco1 | inconclusive: 22.4 µM [inhibitor, full curve, poor fit] | – |
| COc1ccc(CCN)cc1 | inconclusive: 89.1 µM [inhibitor, partial curve, poor fit] | – |
| [Cl][Pt+2][Cl].[NH-]C1CCCCC1[NH-] (stereo not drawn) | active: 50.1 µM | – |
| CCOC(=O)Cn1cc(C(=O)c2ccccc2F)c2ccccc21 | inconclusive: 8.91 µM [inhibitor, partial curve, poor fit] | – |
| CCC(=O)OC1(c2ccccc2)C(C)CN(C)CC1C (stereo not drawn) | – | inactive: -0.242% |
| C=CCn1c(CSc2ccccc2[N+](=O)[O-])n[nH]c1=S | inconclusive: 100 µM [inhibitor, partial curve, poor fit] | – |
| O=C1NC(=O)N(c2cccc(Cl)c2)C(=O)/C1=C\c1ccc(Sc2nc3ccccc3[nH]2)o1 | inconclusive: 100 µM [inhibitor, single point] | – |
| N#CC(C#N)=NNc1ccc(-n2ccc(C(F)(F)F)n2)cc1 | active: 20 µM | – |
| CCN1C(=O)C(=Cc2ccc(C)s2)C(=O)N(CC)C1=S | inconclusive: 22.4 µM [inhibitor, partial curve, poor fit] | – |
| C=C/C(=C/C(=O)C[C@H](C)C[C@@H](C)CC[C@H](O)[C@H](C)C(=O)C[C@@H](O)[C@H](C)[C@@H](C)OC(=O)C[C@@H](O)C1=C(C)C(=O)OC1=O)CC | inconclusive: 10 µM [inhibitor, partial curve, poor fit] | – |
| COc1cc(C(c2c(C)[nH]n(-c3ccccc3)c2=O)c2c(C)[nH]n(-c3ccccc3)c2=O)cc(OC)c1OC | inconclusive: 7.08 µM [inhibitor, partial curve, poor fit] | – |
| CN1CC(CO)=C[C@H]2c3cccc4[nH]cc(c34)C[C@H]21 | inconclusive: 20 µM [inhibitor, partial curve, poor fit] | – |

Structural class: the entries above with two or more sulfur atoms (4)

| SMILES | Potency | max response, negative = inhibition |
| --- | --- | --- |
| c1ccc2sc(SNC3CCCCC3)nc2c1 | inconclusive: 10 µM [inhibitor, full curve, poor fit] | – |
| CCCSP(=S)(OCC)Oc1ccc(Cl)cc1Cl (stereo not drawn) | active: 7.08 µM | – |
| C=CCn1c(CSc2ccccc2[N+](=O)[O-])n[nH]c1=S | inconclusive: 100 µM [inhibitor, partial curve, poor fit] | – |
| CCN1C(=O)C(=Cc2ccc(C)s2)C(=O)N(CC)C1=S | inconclusive: 22.4 µM [inhibitor, partial curve, poor fit] | – |

Carrying on.

| SMILES | Potency | max response, negative = inhibition |
| --- | --- | --- |
| CN[C@@H]1C[C@H](c2ccc(Cl)c(Cl)c2)c2ccccc21 | inconclusive: 44.7 µM [inhibitor, single point] | – |
| O=C1NC(=O)N(Cc2ccco2)C(=O)/C1=C\c1ccc(-c2ccc(F)cc2)o1 | inconclusive: 50.1 µM [inhibitor, partial curve, poor fit] | – |
| CC(C)=CC1C(C(=O)OCc2coc(Cc3ccccc3)c2)C1(C)C (stereo not drawn) | inconclusive: 44.7 µM [inhibitor, partial curve] | – |
| COC(=O)[C@@H]1[C@@H](C(=O)OC)C2(c3ccccc3-c3ccccc32)N(c2ccc(Cl)cc2)N1C#N | inconclusive: 6.31 µM [inhibitor, full curve, poor fit] | – |
| On1ccccc1=S | active: 22.4 µM | – |
| Cc1cc(C)c2c(c1)NP(=S)(c1ccccc1)N2 (stereo not drawn) | inconclusive: 89.1 µM [inhibitor, single point] | – |
| CCCCC/C=C\C/C=C\C/C=C\C/C=C\CCCC(=O)OC(CO)CO | active: 35.5 µM | – |
| Cc1ccc(-n2sc3ccccc3c2=O)cc1 | active: 3.16 µM | – |
| CN1C(=O)C(=Cc2ccc(N3CCOCC3)o2)C(=O)N(C)C1=S | – | inactive: -7.71% |
| CCOc1ccc(N2C(=O)/C(=C/c3ccc(C)o3)C(=O)NC2=S)cc1 | inconclusive: 7.94 µM [inhibitor, partial curve, poor fit] | – |
| Cc1cccc2c3c(ccc12)C1=C(C(=O)C3=O)[C@@H](C)CO1 | active: 20 µM | – |
| COc1cccc(N2C(=O)NC(=O)/C(=C\c3ccc([N+](=O)[O-])s3)C2=O)c1 | inconclusive: 28.2 µM [inhibitor, single point] | – |
| N#CSCC(=O)N1c2ccccc2CCc2ccccc21 | inconclusive: 39.8 µM [inhibitor, partial curve, poor fit] | – |
| COC(=O)C1=C(c2ccc(F)cc2OCc2ccccc2)C[C@@H]2CC[C@H]1N2C(=O)NCc1ccc(Br)cc1 | inconclusive: 17.8 µM [inhibitor, partial curve, poor fit] | – |
| O=C(CN1CCCCC1)c1ccccc1Cl | inconclusive: 89.1 µM [inhibitor, single point] | – |
| CCN(CC)CCN1C(=O)CN=C(c2ccccc2F)c2cc(Cl)ccc21 | inconclusive: 56.2 µM [inhibitor, partial curve, poor fit] | – |
| Cc1ccc(NC(=O)Cn2c(=O)oc3ccccc32)cc1C | inconclusive: 56.2 µM [inhibitor, partial curve, poor fit] | – |
| O=C1NC(=S)NC(=O)C12C(c1ccc(F)cc1)NC(=S)NC2c1ccc(F)cc1 (stereo not drawn) | inconclusive: 79.4 µM [inhibitor, single point] | – |
| COC(=O)c1c(N)n(Cc2ccc(OC)cc2)c2nc3ccccc3nc12 | – | inactive: 17.1% |
| Cc1cccc2c3c(ccc12)C1=C(C(=O)C3=O)C(C)CO1 (stereo not drawn) | active: 5.62 µM | – |
| c1ccc(N2CC[C@@]3(CCCNC3)C2)nc1 | inconclusive: 50.1 µM [inhibitor, partial curve, poor fit] | – |
| C/C(=N\NC(=S)Nc1ccccc1)c1c(O)n(C)c(=O)n(C)c1=O | inconclusive: 39.8 µM [inhibitor, single point] | – |
| CCC(=O)OC1CCC2C3CCC4CC(=O)C=CC4(C)C3CCC12C (stereo not drawn) | active: 50.1 µM | – |

| SMILES | Potency | max response, negative = inhibition |
| --- | --- | --- |
| CCCCC/C=C\C/C=C\C/C=C\C/C=C\CCCC(=O)NCCCC(=O)O | active: 28.2 µM | – |
| c1ccc(N2CC3(CCNCC3)C2)cc1 | inconclusive: 50.1 µM [inhibitor, partial curve] | – |
| O=C(O)Cn1cc(/C=C2\C(=O)NC(=O)N(Cc3ccco3)C2=O)c2ccccc21 | inconclusive: 100 µM [inhibitor, single point] | – |
| N#C/C(=C\c1ccc(O)c(O)c1)C(=O)NCCCNC(=O)/C(C#N)=C/c1ccc(O)c(O)c1 | inconclusive: 31.6 µM [inhibitor, partial curve] | – |
| CCOP(=S)(OCC)Oc1nc(Cl)c(Cl)cc1Cl | active: 31.6 µM | – |
| Cc1cccc(N2C(=O)NC(=O)/C(=C\c3ccc4c(c3)CCCN4Cc3ccccc3)C2=O)c1 | inconclusive: 100 µM [inhibitor, partial curve, poor fit] | – |
| COC(=O)C1CN(C#N)N(c2ccc(Cl)cc2)C12c1ccccc1-c1ccccc12 (stereo not drawn) | inconclusive: 15.8 µM [inhibitor, full curve, poor fit] | – |
| O=C1CC(=O)N(Cc2ccccc2)C(=S)N1 | – | inactive: -18.1% |
| COC[C@H]1OC(=O)c2coc3c2[C@@]1(C)C1=C(C3=O)[C@H]2CCC(=O)[C@@]2(C)C[C@H]1OC(C)=O | active: 31.6 µM | – |
| CCN(CC)C(=O)c1ccc(NC(=O)c2cccc(F)c2)cc1 | – | inactive: -10.2% |
| Brc1c(NC2=NCCN2)ccc2nccnc12 | active: 44.7 µM | – |
| COc1ccc(C(=O)C2CCCN(Cc3ccccn3)C2)c(OC)c1 (stereo not drawn) | – | inactive: -15.9% |
| CCn1c(O)c(C=NCc2ccccc2)c(=O)[nH]c1=S | – | inactive: -1.24% |
| COCCNC(=O)c1c(NC(=O)c2ccc(Br)o2)n(Cc2ccccc2)c2nc3ccccc3nc12 | inconclusive: 89.1 µM [inhibitor, single point] | – |
| Clc1ccc(C2=CCC[C@H]3CC[C@@H]2N3)cn1 | inconclusive: 89.1 µM [inhibitor, single point] | – |
| CN1CCC(O)(c2ccc(Cl)cc2)C(C(=O)c2ccc(Cl)cc2)C1 (stereo not drawn) | inconclusive: 89.1 µM [inhibitor, partial curve, poor fit] | – |
| C=CCc1c(C)[nH]c(=S)c(C#N)c1C | inconclusive: 70.8 µM [inhibitor, partial curve, poor fit] | – |
| O=C1CC(O)(CF)CCO1 (stereo not drawn) | – | inactive: 0.762% |
| COc1cc(OC)c(OC)cc1/C=C1/C(=O)NC(=O)N(Cc2ccccc2)C1=O | – | inactive: -4.91% |
| CCN1C(=O)NC(=O)/C(=C/c2cc(C)n(-c3sc(C)c(C)c3C#N)c2C)C1=O | inconclusive: 56.2 µM [inhibitor, partial curve, poor fit] | – |
| N#CC(C#N)=C(C#N)c1ccc(Nc2ccccc2)cc1 | active: 50.1 µM | – |
| CC(CO)NC(=O)C1C=C2c3cccc4[nH]cc(c34)CC2N(C)C1 (stereo not drawn) | inconclusive: 15.8 µM [inhibitor, full curve, poor fit] | – |
